From the supplement of paper PMC12889115 come the findings set out here.

The subject of the assay is Salmonella enterica serovar Typhimurium SL1344. As to the kind of experiment: bacterial growth OD600 after 18 h with compound and polymyxin B; higher = more bacterial growth (less inhibition). The following applies: 50 µM, Mueller-Hinton broth.

Some of the results follow. These are raw signals, not scaled to a control.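 First-pass screen: polymyxin B was added at a level that permeabilizes the Salmonella outer membrane while sparing the inner membrane. DMSO wells, with and without polymyxin B, defined maximum growth. Because plates differed from one another, each plate's data were ranked separately and the compounds with the lowest OD600 were carried forward as hits.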

For `CCOc1ccc(CN2CCN(Cc3cccc(OCC)c3)CC2CCO)cc1` (stereo unspecified), where the note is “polymyxin B 1 µg/mL”, the “bacterial growth OD600” value was 0.873. As for `CN(Cc1nc2ccccc2[nH]1)C(=O)Cn1nnnc1CN1CCc2ccccc2C1`, the “bacterial growth OD600” value (polymyxin B 0.75 µg/mL) came to 0.816. For the compound `COc1cccc(CC2(CCC(=O)N3CCC(OCc4ccccc4)CC3)CCC(=O)N2)c1` (stereo unspecified), the “bacterial growth OD600” value (polymyxin B 0.75 µg/mL) stood at 0.772. As for `CC(C)Cc1noc(-c2ccc(N3CCN(C)C(=O)[C@@H]3C)nc2)n1`, the “bacterial growth OD600” value (polymyxin B 1 µg/mL) stood at 0.95. As to `c1ccc(CN(Cc2nc(-c3ccccc3)no2)CC2CC2)cc1`, the “bacterial growth OD600” value (polymyxin B 1 µg/mL) amounted to 0.648. As for `c1cnc(N2CCC(C3CCN(Cc4nccs4)C3)CC2)nc1` (stereo unspecified), the “bacterial growth OD600” value (polymyxin B 0.75 µg/mL) came to 0.803.

For the compound `O=C(CCC1CCN(C(=O)C2(c3ccccc3)CCCCC2)CC1)NC1CC1`, the “bacterial growth OD600” value (polymyxin B 1 µg/mL) was determined as 0.797. Consider `C=CCS(=O)(=O)N1CCC(C2CCN(Cc3cccnc3)CC2)C1` (stereo unspecified), for which the “bacterial growth OD600” value (polymyxin B 0.75 µg/mL) is 0.832. Turning to `CCCn1cc(C(=O)NC2CCCN(CCc3ccccc3)C2)c(C)n1` (stereo unspecified), the “bacterial growth OD600” value (polymyxin B 1 µg/mL) amounted to 1.07. Take `CC(C)CN(C)Cc1cnc(S(=O)(=O)CC2CC2)n1CC1CCCO1` (stereo unspecified): the “bacterial growth OD600” value (polymyxin B 0.75 µg/mL) came out at 0.861.

For `Cc1c(C(C)NCCc2ccccc2)cnn1-c1ccccc1` (stereo unspecified), the “bacterial growth OD600” value (polymyxin B 0.75 µg/mL) was found to be 0.82. With `COc1ccc(CC2(CCC(=O)NC3CCCCCC3)CCC(=O)N2)c2ccccc12` (stereo unspecified), the “bacterial growth OD600” value (polymyxin B 0.75 µg/mL) was 0.649. On to `Cc1ncc(CNCc2cccnc2Oc2ccc(C)c(F)c2F)cn1`, for which the “bacterial growth OD600” value (polymyxin B 1 µg/mL) is 0.97.

For `Cc1ccc(CC2(CCC(=O)N3CCCC(OCc4ccccc4)C3)CCC(=O)N2)cc1` (stereo unspecified), for the setting “polymyxin B 0.75 µg/mL”, the “bacterial growth OD600” value worked out at 0.792.

Turning to `COc1ccc(C(=O)N2CCC3(CC2)c2ccccc2[C@@H](NC(=O)COc2ccccc2)[C@@H]3OC)o1`, the “bacterial growth OD600” value (polymyxin B 0.75 µg/mL) stood at 0.774.

With `O=C(CCC1(Cc2ccc3ccccc3c2)CCC(=O)N1)NCC1COc2ccccc2O1` (stereo unspecified), the “bacterial growth OD600” value (polymyxin B 0.75 µg/mL) is 0.834. On to `Cc1ocnc1C(=O)N1CCC2(CCCN(Cc3ccccc3F)C2=O)C1` (stereo unspecified), for which the “bacterial growth OD600” value (polymyxin B 1 µg/mL) came out at 1.22. Turning to `Cc1ccc(CC2(CCC(=O)NCc3cc(C(F)(F)F)ccc3F)CCC(=O)N2)cc1` (stereo unspecified), the “bacterial growth OD600” value (polymyxin B 0.75 µg/mL) stood at 0.749. Regarding `COc1ccccc1C(=O)N1CCCC(Nc2ccc(C)c(C)c2)C1` (stereo unspecified), the “bacterial growth OD600” value (polymyxin B 1 µg/mL) amounted to 0.916.

`COc1cccc(CC(C2CCN(C(=O)c3ccc(F)cc3)CC2)N(C)C(=O)c2ccn(C)n2)c1` (stereo unspecified): the “bacterial growth OD600” value (polymyxin B 0.75 µg/mL) is 0.823. `CCCn1ncc(CN2CCCC(CO)(CCCc3ccccc3)C2)c1C` (stereo unspecified): under “polymyxin B 0.75 µg/mL”, the “bacterial growth OD600” value was 0.828. In the case of `Cc1ccc(CNC(=O)Cn2nnnc2CN2CCCC2)s1`, the “bacterial growth OD600” value (polymyxin B 1 µg/mL) was determined as 0.831. Consider `CC(NC(=O)c1cc(Cn2cnc3ccccc32)[nH]n1)c1cccs1` (stereo unspecified), for which the “bacterial growth OD600” value (polymyxin B 1 µg/mL) stood at 0.981.

On to `CCN(CC1CCCN(CCc2cccc(F)c2)C1)C(=O)C1CCN(C)CC1` (stereo unspecified), for which, for the setting “polymyxin B 1 µg/mL”, the “bacterial growth OD600” value was 0.752. Consider `O=C(c1ccc(F)cc1)N1CCC(C2(c3ccccn3)NC(=O)N(CCc3cccs3)C2=O)CC1` (stereo unspecified), for which the “bacterial growth OD600” value (polymyxin B 0.75 µg/mL) was 0.945.

As for `COc1ccc(CC(=O)NCC2CCCN(Cc3ccc(OC(F)(F)F)cc3)C2)cc1` (stereo unspecified), the “bacterial growth OD600” value (polymyxin B 1 µg/mL) came to 0.974.

As to `CCC1CN(C(=O)C2CC2(CC)CC)Cc2ccc(Cl)cc2O1` (stereo unspecified), the “bacterial growth OD600” value (polymyxin B 0.75 µg/mL) worked out at 0.2. Take `Fc1ccccc1-c1noc2c1CN(Cc1ccc3nonc3c1)CC2`: the “bacterial growth OD600” value (polymyxin B 0.75 µg/mL) is 0.385.

Consider `CN(Cc1ccn[nH]1)C(=O)C1CCN(c2nc(-c3ccccc3)nc3c2CCC3)CC1`, for which, for the setting “polymyxin B 0.75 µg/mL”, the “bacterial growth OD600” value stood at 0.599. For `OCCOc1ccc(CN2CCCC(Nc3ccc(F)c(F)c3)C2)cc1` (stereo unspecified), for the setting “polymyxin B 1 µg/mL”, the “bacterial growth OD600” value was found to be 0.888.

For the compound `COc1cccc(C(=O)NC2CC(=O)N(CCCc3ccccc3)C2)c1` (stereo unspecified), the “bacterial growth OD600” value (polymyxin B 1 µg/mL) is 0.96.
